Drawing on PMC8406268, this text covers binding for one substance.

Protein sequences, listed by entry. Tags and fused reporters are not part of them.
UniProt A5IV09: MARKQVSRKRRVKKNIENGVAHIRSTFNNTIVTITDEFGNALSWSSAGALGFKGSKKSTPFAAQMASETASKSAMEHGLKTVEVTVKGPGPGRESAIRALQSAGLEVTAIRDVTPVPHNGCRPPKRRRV

Results are given in words; binding and its absence hold for the method and conditions named. In cells and extracts the contact can be indirect. Some entries that bind do so weakly or less than the wild type. Tags and fused reporters may be left off the sequences shown.

For this assay, the target named is T1, 3×FLAG-tagged S. aureus RNase R (S. aureus) (UniProt Q2G024).
T1 sequence (chain, methylated Q538 (found by LC-MS/MS of the immunoprecipitated protein)): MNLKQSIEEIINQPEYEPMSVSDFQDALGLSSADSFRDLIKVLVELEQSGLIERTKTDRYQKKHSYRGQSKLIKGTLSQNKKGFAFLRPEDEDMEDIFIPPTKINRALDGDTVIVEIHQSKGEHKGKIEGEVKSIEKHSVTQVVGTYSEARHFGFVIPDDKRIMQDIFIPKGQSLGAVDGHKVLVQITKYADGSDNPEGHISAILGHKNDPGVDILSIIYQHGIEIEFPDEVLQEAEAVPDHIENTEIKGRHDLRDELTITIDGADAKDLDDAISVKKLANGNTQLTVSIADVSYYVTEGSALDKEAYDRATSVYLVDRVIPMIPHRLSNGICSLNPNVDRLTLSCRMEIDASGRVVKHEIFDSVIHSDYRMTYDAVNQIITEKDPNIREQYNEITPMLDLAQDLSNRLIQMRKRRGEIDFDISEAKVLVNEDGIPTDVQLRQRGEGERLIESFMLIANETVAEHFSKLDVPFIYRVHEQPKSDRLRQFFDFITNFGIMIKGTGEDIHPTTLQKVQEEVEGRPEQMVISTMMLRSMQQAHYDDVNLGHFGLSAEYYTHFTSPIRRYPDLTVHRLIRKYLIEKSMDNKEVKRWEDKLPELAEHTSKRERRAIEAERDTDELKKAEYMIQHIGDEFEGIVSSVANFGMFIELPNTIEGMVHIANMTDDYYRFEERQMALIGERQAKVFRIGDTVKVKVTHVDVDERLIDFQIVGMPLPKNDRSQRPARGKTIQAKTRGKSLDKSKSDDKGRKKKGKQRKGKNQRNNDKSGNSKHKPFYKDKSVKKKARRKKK
The assay can be described thus: co-IP; eluate of the anti-FLAG M2 pulldown of 3×FLAG-Rnr from S. aureus lysate probed by Western blot with anti-S11; untagged control in parallel. (In general: A western blot detects proteins with antibodies after separation by electrophoresis.)

In the case of “30S ribosomal protein S11 (from UniProt A5IV09 1-129)”, the binding entry is recorded as “binds”.
